“And” between values parts separate entries of the source, which are not always exact repeats. Equal values may be shown once. Where a name gives a salt, the structure may show the parent alone. The list shows a part of the results. Single values are uncertain here, since repeats match poorly.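 HEK293T cells were given each compound shortly before transfection with a reporter in which red mCherry is followed by the SARS-CoV-2 frameshift element and then GFP in the −1 frame, so GFP appears only after frameshifting.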
Each molecule was assayed on SARS-CoV-2 -1 PRF reporter mCherry-FSE-GFP(-1) (assay: percent effect, decrease of GFP/mCherry ratio (-1 PRF reporter) relative to controls; higher = stronger frameshift inhibition). Conditions: 10 µM; 24 h; HEK293T.

| Structure (SMILES) | percent effect |
| --- | --- |
| CC(=O)c1ccc(S(=O)(=O)NC(=O)NC2CCCCC2)cc1 [acetohexamide] | 0.43% |
| NC1=NCC2c3ccccc3Cc3ccccc3N12 (stereo not given) [epinastine] | -1.82% |
| O=C(O[C@H]1CN2CCC1CC2)N1CCc2ccccc2[C@@H]1c1ccccc1 | 0.804% |
| COC(=O)[C@H]1[C@H]2C[C@@H]3c4[nH]c5ccccc5c4CCN3C[C@H]2C[C@@H](OC(=O)c2cc(OC)c(OC)c(OC)c2)[C@@H]1OC [deserpidine] | -7.34% |
| CC(C)NCC(O)COc1ccc(CCOCC2CC2)cc1 (stereo not given) [Betaxolol·HCl] | 9% |
| CN(C)CCC=C1c2ccccc2C(C)(C)c2ccccc21 [melitracen] | 2.02% |
| O=C1c2ccccc2CN2C(=O)c3ccccc3CN12 [diftalone] | -1.38% |
| CN(C)/N=N/c1[nH]cnc1C(N)=O | -1.48% |
| CC[N+](C)(C)Cc1ccccc1Br [bretylium tosilate] | -1.82% |
| NCCC[C@H](N)CC(=O)N[C@H]1CNC(=O)[C@H]([C@H]2C[C@H](O)NC(N)=N2)NC(=O)/C(=C/NC(N)=O)NC(=O)[C@H](CO)NC(=O)[C@H](CO)NC1=O | -0.0675% |
| CC(C(=O)O)c1ccc2oc(-c3ccc(Cl)cc3)nc2c1 (stereo not given) [benoxaprofen] | -4.8% |
| CO[C@@]1(NC(=O)C(C(=O)O)c2ccc(O)cc2)C(=O)N2C(C(=O)O)=C(CSc3nnnn3C)CO[C@@H]21 (stereo not given in full) | -3.11% |
| Nc1nc(CC(=O)Nc2ccc(CCNC[C@H](O)c3ccccc3)cc2)cs1 [Mirabegron] | -4.75% |
| CN1C(=O)CC[C@H]1c1cccnc1 [cotinine] | -3.43% |
| CN(C)C(=N)NC(=N)N [Metformin] | -1.58% |
| NC(C(=O)O)C(O)c1ccc(O)c(O)c1 (stereo not given) | -8.01% |
| CCCCCCCCCCCCC[N+](C)(C)Cc1ccccc1 | -4.02% |
| C[C@@H]1NC(=O)[C@@H](N)CNC(=O)[C@H](C2CCNC(=N)N2)NC(=O)/C(=C/NC(N)=O)NC(=O)[C@H](CNC(=O)CC(N)CCCN)NC1=O.N=C1NCC[C@H]([C@@H]2NC(=O)/C(=C/NC(N)=O)NC(=O)[C@H](CNC(=O)C[C@@H](N)CCCN)NC(=O)[C@H](CO)NC(=O)[C@@H](N)CNC2=O)N1 [Capreomycin] | -3.72% |
| CN1C2CCCC1CC(NC(=O)c1nn(C)c3ccccc13)C2 (stereo not given) [Granisetron] | -0.612% |
| CC(CCc1ccccc1)NCC(O)c1ccc(O)c(C(N)=O)c1 (stereo not given) [labetalol] | 1.3% |

| Structure (SMILES) | percent effect |
| --- | --- |
| CO[C@@H]1[C@H](OC(=O)/C=C/C=C/C=C/C=C/C(=O)O)CC[C@]2(CO2)[C@H]1[C@@]1(C)O[C@@H]1CC=C(C)C [Fumagillin] | -2.68% |
| N#C[C@@H]1CCCN1C(=O)CNC12CC3CC(CC(O)(C3)C1)C2 [vildagliptin] | -4.71% |
| COc1cc(C)c(/C=C/C(C)=C/C=C/C(C)=C/C(=O)O)c(C)c1C [acitretin] | -6.76% and -0.489% |
| NC(CSSCC(N)C(=O)O)C(=O)O (stereo not given) | 0.936% |
| NS(=O)(=O)c1cc2c(cc1Cl)N=C(CSCc1ccccc1)NS2(=O)=O | 1.25% |
| CN1C[C@@H]2C[C@H]1CN2c1cc2c(cc1F)c(=O)c(C(=O)O)cn2C1CC1 [danofloxacin] | -1.32% |
| CN(C)CC/C=C1\c2ccccc2CSc2ccccc21 [dosulepin] | -0.386% |
| O=C(C(Cl)Cl)N(CCO)Cc1ccc(Oc2ccc([N+](=O)[O-])cc2)cc1 [clefamide] | -14.6% |
| O=C(O)Cn1cc(I)c(=O)c(I)c1 [diodone] | 2.83% |
| CCOC(Nc1ccc(C(=O)O)cc1)C(=O)c1ccc(-c2ccccc2)cc1 (stereo not given) [xenazoic acid] | -3.77% |
| C[C@H](N)[C@H](O)c1cccc(O)c1 | 2.49% |
| C[C@H]1[C@H](NC(=O)/C(=N\OC(C)(C)C(=O)O)c2csc(N)n2)C(=O)N1S(=O)(=O)O [Azactam] | -5.08% |
| CO[C@H]1C[C@H](O[C@@H]2/C(C)=C/C[C@@H]3C[C@@H](C[C@]4(CC[C@H](C)[C@@H](C5CCCCC5)O4)O3)OC(=O)[C@@H]3C=C(C)/C(=N/O)[C@H]4OC/C(=C\C=C\[C@@H]2C)[C@]43O)O[C@@H](C)[C@@H]1O | 2.03% |
| C=C1c2cccc(O)c2C(O)=C2C(=O)[C@]3(O)C(O)=C(C(N)=O)C(=O)[C@@H](N(C)C)[C@@H]3[C@@H](O)[C@H]12 | -8.67% |
| C=C1/C(=C\C=C2/CCC[C@]3(C)[C@@H]([C@H](C)CCCC(C)(C)O)CC[C@@H]23)C[C@@H](O)C[C@@H]1O [calcitriol] | -3.6% and -0.793% |
| C#CC(C)(CC)OC(=O)c1ccccc1C(=O)O (stereo not given) [ftalofyne] | -6.96% |
| N=C(N)NCC1COC2(CCCCC2)O1 (stereo not given) | -1.6% |
| CC1(C)[C@@H]2CC[C@@]1(C)C(=O)C2 | -5.06% |
| Nc1nc2c(ncn2COC(CO)CO)c(=O)[nH]1 [Ganciclovir] | 1.09% |
| COc1c2ccoc2cc2oc(=O)ccc12 | -0.52% |

3 compounds from above, ordered by SMILES length, smallest number first:

| Structure (SMILES) | percent effect |
| --- | --- |
| C[C@H](N)[C@H](O)c1cccc(O)c1 | 2.49% |
| CC1(C)[C@@H]2CC[C@@]1(C)C(=O)C2 | -5.06% |
| CCCCCCCCCCCCC[N+](C)(C)Cc1ccccc1 | -4.02% |

Source: the supplement of paper PMC8256030
